Test results as given in the supplement of paper PMC11732987, “Enantioselective OTUD7B fragment discovery through chemoproteomics screening and high-throughput optimisation” (Communications Chemistry, 2025).
The other results are listed elsewhere or left out. The data scatter; read single values as rough.

Amino acid sequences for entries named in this document (tags omitted). A change or cut given only in a name is not applied to a line headed by its entry. Residues count along the entry.
UniProt Q6AI08: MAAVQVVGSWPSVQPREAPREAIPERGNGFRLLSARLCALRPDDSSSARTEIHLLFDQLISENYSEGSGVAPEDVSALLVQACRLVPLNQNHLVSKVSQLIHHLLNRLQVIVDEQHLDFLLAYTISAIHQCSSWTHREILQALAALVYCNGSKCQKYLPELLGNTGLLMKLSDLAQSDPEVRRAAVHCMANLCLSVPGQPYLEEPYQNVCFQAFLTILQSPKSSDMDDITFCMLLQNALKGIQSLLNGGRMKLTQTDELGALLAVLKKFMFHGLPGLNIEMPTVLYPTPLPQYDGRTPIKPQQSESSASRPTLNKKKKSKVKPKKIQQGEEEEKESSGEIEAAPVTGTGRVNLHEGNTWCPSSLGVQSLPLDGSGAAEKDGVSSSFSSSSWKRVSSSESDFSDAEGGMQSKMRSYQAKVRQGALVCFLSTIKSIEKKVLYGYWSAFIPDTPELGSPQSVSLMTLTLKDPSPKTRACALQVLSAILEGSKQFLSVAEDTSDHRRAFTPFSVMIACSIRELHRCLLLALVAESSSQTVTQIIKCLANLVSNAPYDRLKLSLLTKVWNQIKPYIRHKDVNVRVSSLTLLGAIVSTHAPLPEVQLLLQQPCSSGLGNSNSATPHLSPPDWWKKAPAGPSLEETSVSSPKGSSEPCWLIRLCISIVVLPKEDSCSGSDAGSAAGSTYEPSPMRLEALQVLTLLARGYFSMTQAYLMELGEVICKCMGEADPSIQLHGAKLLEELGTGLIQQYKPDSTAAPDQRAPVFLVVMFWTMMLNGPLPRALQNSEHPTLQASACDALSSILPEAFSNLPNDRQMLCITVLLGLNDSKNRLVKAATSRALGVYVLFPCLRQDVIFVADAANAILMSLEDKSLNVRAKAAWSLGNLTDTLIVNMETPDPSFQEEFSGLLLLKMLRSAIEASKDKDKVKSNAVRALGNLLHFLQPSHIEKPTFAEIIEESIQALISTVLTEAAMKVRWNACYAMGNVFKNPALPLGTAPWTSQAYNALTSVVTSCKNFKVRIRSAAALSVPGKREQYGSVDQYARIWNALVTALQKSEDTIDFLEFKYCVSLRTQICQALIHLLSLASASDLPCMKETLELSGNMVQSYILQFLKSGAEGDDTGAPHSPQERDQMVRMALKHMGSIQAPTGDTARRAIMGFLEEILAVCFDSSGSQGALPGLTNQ
UniProt Q7Z4Q2: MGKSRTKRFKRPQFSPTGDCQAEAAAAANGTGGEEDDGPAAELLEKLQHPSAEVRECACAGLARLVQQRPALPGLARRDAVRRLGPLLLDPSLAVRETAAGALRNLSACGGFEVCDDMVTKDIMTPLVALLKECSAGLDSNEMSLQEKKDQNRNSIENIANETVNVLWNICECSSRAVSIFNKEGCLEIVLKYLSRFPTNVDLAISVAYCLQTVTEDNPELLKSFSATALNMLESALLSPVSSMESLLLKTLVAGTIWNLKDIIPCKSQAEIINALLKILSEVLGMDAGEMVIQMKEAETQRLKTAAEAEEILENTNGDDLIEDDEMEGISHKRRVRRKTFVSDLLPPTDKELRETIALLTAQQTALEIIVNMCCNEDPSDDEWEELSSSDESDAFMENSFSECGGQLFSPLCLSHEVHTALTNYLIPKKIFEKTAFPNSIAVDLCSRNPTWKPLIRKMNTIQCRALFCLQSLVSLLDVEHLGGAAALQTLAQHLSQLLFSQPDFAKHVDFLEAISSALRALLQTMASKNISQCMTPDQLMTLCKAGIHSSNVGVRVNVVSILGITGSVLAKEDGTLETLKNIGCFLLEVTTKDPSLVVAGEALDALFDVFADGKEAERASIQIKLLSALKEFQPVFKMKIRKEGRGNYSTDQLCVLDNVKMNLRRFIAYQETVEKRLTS
UniProt P51610: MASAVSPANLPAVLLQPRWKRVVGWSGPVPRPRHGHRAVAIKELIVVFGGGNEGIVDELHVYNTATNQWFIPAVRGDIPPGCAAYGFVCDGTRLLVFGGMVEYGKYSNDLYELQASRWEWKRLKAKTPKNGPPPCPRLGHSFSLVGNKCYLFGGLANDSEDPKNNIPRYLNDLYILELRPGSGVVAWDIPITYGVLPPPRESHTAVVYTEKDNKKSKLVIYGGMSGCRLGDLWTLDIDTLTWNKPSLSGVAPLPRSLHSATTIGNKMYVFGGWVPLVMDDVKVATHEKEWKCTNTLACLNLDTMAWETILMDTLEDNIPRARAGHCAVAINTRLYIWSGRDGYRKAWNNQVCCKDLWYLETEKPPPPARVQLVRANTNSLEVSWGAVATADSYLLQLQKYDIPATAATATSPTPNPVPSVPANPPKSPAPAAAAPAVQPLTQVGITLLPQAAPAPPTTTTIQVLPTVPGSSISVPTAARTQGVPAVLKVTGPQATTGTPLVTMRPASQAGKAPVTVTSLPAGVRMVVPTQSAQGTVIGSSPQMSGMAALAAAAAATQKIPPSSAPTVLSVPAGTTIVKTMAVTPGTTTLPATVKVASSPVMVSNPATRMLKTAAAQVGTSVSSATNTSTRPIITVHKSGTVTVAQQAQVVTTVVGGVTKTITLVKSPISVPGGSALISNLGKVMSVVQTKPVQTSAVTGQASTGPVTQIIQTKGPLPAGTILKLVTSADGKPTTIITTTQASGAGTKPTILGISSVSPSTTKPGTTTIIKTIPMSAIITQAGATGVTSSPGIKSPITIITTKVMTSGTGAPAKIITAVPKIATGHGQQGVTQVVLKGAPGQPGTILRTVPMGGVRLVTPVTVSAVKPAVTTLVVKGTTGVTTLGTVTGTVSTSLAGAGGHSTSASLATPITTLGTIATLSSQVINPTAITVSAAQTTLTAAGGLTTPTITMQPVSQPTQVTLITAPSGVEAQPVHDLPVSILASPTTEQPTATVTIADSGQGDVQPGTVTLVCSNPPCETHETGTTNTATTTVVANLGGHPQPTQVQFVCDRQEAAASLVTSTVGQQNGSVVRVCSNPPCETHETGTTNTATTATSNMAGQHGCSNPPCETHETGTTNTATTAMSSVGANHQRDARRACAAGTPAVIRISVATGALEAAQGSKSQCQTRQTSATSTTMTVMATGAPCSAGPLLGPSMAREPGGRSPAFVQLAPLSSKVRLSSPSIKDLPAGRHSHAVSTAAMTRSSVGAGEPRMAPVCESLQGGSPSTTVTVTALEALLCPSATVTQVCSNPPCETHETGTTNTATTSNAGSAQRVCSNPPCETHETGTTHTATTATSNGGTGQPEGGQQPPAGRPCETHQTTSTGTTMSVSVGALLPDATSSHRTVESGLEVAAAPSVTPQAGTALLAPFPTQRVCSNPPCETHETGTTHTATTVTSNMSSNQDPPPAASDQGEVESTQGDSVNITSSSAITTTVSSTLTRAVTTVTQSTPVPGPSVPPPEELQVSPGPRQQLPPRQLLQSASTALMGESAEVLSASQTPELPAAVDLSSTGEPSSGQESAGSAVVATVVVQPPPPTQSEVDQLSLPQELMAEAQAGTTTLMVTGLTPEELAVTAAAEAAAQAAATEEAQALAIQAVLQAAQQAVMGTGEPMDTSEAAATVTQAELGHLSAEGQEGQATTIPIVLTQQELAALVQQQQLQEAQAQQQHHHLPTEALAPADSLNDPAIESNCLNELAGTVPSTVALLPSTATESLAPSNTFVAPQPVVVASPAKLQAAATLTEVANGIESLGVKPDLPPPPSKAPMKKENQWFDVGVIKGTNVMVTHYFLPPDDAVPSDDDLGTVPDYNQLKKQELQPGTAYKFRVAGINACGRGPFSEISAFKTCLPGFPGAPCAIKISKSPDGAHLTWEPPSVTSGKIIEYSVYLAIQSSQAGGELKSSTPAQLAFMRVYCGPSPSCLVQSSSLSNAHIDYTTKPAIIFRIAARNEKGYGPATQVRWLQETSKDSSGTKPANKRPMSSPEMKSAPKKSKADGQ
UniProt Q6NVY1: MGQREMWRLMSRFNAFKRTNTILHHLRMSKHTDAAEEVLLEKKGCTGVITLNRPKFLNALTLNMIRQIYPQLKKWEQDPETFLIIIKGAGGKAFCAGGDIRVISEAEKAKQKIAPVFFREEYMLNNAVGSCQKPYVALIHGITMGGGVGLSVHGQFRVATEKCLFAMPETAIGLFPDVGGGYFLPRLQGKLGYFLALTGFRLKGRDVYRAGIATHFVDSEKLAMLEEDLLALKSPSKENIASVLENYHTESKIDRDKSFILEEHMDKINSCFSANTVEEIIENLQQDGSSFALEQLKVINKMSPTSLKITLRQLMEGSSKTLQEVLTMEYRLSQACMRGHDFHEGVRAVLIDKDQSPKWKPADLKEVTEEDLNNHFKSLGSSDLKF
UniProt Q8N442: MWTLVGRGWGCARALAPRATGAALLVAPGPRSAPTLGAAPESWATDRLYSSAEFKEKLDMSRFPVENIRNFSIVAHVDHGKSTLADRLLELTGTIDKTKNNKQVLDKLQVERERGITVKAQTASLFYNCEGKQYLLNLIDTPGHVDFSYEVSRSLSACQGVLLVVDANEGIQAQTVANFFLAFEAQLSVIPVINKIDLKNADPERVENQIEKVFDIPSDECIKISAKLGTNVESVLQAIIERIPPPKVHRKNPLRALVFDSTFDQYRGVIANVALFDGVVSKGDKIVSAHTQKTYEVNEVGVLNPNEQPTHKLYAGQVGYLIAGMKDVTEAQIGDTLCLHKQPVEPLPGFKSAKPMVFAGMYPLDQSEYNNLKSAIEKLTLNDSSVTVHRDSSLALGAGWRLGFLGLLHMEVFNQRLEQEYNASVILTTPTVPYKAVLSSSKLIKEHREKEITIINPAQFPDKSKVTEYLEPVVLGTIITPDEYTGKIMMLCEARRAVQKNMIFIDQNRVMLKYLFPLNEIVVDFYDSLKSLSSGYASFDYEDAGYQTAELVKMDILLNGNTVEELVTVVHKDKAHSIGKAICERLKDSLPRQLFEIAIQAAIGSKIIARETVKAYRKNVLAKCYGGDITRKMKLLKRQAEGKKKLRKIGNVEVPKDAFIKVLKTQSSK
UniProt O75146: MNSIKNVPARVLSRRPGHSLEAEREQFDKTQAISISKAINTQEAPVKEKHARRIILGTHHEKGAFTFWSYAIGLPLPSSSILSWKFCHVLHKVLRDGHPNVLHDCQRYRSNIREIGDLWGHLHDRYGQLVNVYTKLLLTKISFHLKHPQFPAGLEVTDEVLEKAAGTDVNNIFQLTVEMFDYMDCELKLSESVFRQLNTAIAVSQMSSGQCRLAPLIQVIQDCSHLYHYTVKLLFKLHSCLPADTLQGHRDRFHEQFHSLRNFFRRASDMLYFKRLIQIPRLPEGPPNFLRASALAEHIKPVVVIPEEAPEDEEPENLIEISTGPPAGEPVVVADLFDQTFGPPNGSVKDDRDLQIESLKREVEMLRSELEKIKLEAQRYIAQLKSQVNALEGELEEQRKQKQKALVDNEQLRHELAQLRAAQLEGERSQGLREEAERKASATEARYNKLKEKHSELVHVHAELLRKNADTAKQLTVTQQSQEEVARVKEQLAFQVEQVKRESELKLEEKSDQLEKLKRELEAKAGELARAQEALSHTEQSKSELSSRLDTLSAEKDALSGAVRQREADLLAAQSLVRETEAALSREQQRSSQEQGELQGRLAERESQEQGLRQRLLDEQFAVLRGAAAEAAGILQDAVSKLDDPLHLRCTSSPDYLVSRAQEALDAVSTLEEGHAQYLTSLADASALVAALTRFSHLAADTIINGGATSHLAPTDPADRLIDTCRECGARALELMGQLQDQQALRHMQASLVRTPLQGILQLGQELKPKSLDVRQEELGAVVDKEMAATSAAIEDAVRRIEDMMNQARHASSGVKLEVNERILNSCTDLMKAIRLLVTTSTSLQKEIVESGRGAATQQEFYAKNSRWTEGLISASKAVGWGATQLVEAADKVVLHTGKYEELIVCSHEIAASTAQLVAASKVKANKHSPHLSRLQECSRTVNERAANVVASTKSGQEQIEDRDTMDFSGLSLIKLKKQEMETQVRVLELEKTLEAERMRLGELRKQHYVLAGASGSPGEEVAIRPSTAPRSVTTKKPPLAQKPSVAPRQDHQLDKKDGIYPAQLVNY
UniProt P19367, 255-274: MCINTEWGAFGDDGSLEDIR
UniProt P49590: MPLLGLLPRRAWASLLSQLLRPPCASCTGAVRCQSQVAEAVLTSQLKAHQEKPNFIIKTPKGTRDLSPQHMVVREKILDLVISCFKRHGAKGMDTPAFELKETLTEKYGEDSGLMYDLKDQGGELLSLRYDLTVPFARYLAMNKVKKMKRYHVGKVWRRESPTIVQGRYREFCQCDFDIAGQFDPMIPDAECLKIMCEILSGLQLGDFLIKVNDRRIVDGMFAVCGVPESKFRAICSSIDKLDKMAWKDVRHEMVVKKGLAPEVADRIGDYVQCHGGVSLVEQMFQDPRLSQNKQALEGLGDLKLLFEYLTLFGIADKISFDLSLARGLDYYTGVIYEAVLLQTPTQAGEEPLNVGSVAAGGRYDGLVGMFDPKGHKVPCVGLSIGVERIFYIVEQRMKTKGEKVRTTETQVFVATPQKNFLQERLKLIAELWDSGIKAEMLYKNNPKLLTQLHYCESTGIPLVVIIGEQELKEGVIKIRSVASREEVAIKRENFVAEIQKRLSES

Columns and labels:
[1] = compound: ClCC(=O)N[C@@H]1CCCc2ccccc12; experiment: log2 mean competition ratio of IA-DTB cysteine labelling (DMSO/compound) (log2 ratio); higher = stronger cysteine engagement by compound; conditions: treatment time: 4 h, cell line lysate: HEK293T
Procedure: (§1)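 IA-DTB competitive cysteine chemoproteomics in HEK293T RIPA lysate. Lysates were treated with compound 29 or 30 at 50 or 200 µM for 4 h, then IA-DTB (500 µM, 1 h), trypsin-digested, NeutrAvidin-enriched and analysed by diaPASEF. Competition ratio = intensity DMSO / intensity compound (n=4 treated, n=64 DMSO); binding: mean log2 CR ≥ 1 and p ≤ 0.05 plus QC filters. Target is the cysteine site.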

[2] = compound: ClCC(=O)N[C@H]1CCCc2ccccc12; experiment: as above; conditions: treatment time: 4 h, cell line lysate: HEK293T
Procedure: as §1

| Target | log2 mean competition ratio ([1]; 50 µM) | log2 mean competition ratio ([1]; 200 µM) | log2 mean competition ratio ([2]; 50 µM) | log2 mean competition ratio ([2]; 200 µM) |
| --- | --- | --- | --- | --- |
| HGS C166 (UniProt O14964) | -0.178 | 0.166 | -0.604 | 0.144 |
| HERC2 C4517 (UniProt O95714) | 0.247 | 0.0425 | -0.0408 | -0.106 |
| HK2 C823 (UniProt P52789) | 0.196 | -0.286 | 0.227 | -0.22 |
| HID1 C85 | 0.0331 | 0.353 | 0.0159 | 0.0632 |
| HNRNPM C676 | 0.2 | 0.171 | -0.0754 | 0.0963 |
| HOXB13 C211 | 0.174 | 0.52 | -0.122 | 0.369 |
| HEATR6 C720 (UniProt Q6AI08) | 0.0919 | 0.105 | -0.572 | -0.0239 |
| HEATR3 C464 (UniProt Q7Z4Q2) | -0.0623 | 0.141 | 0.0448 | 0.125 |
| HDLBP C948 | 0.262 | 0.186 | 0.315 | 0.0614 |
| GTF2F2 C116 (UniProt P13984) | 0.277 | 0.196 | -0.0293 | 0.0312 |
| HAUS6 C743 (UniProt Q7Z4H7) | 0.00729 | 0.315 | -0.196 | -0.133 |
| HNRNPA2B1 C50 (UniProt P22626) | -0.0278 | 0.0958 | -0.454 | -0.363 |
| HLA-C C125 | -0.139 | 0.198 | -0.102 | 0.286 |
| HIP1 C63 (UniProt O00291) | 0.341 | 0.16 | 0.272 | -0.0196 |
| HECW2 C224 (UniProt Q9P2P5) | 0.927 | -0.032 | 0.315 | -0.44 |
| HNRNPLL C405 (UniProt Q8WVV9) | 0.847 | 0.0787 | 0.414 | 0.24 |
| GULP1 C101 (UniProt Q9UBP9) | 0.0605 | 0.0832 | -0.151 | 0.0253 |
| HNRNPH1 C122 (UniProt P31943) | -0.291 | -0.948 | 0.182 | -0.722 |
| HEATR5A C1421 (UniProt Q86XA9) | 0.269 | 0.181 | 0.245 | 0.216 |
| HAUS1 C156 (UniProt Q96CS2) | -0.197 | -0.136 | -0.0106 | -0.122 |
| GTF3C2 C828 (UniProt Q8WUA4) | -0.132 | 0.104 | -0.401 | -0.105 |
| HASPIN C762 (UniProt Q8TF76) | -0.217 | 0.0962 | 0.0108 | 0.0154 |
| HNRNPL C452 | -0.156 | -0.23 | 0.7 | 0.0178 |

For reference, part of the list above:

| Target | log2 mean competition ratio ([1]; 50 µM) | log2 mean competition ratio ([1]; 200 µM) | log2 mean competition ratio ([2]; 50 µM) | log2 mean competition ratio ([2]; 200 µM) |
| --- | --- | --- | --- | --- |
| HLA-C C125 | -0.139 | 0.198 | -0.102 | 0.286 |
| HIP1 C63 (UniProt O00291) | 0.341 | 0.16 | 0.272 | -0.0196 |

The list continues:

| Target | log2 mean competition ratio ([1]; 50 µM) | log2 mean competition ratio ([1]; 200 µM) | log2 mean competition ratio ([2]; 50 µM) | log2 mean competition ratio ([2]; 200 µM) |
| --- | --- | --- | --- | --- |
| HCFC1 C1139 (UniProt P51610) | 0.0279 | 0.255 | -0.171 | 0.357 |
| HAUS3 C3 (UniProt Q68CZ6) | -0.127 | 0.0493 | -0.0662 | 0.139 |
| HCFC1 C135 (UniProt P51610) | -0.322 | -0.626 | 0.022 | -0.13 |
| HIBCH C336 (UniProt Q6NVY1) | -0.148 | 0.178 | -0.146 | 0.201 |
| HOXA11 C82 | 0.0811 | 0.000971 | -0.488 | 0.131 |
| HMOX2 C282 (UniProt P30519) | 0.541 | 1.67 | 0.861 | 1.74 |
| GUF1 C492 (UniProt Q8N442) | 0.442 | 0.259 | 0.187 | 0.308 |
| HLTF C442 (UniProt Q14527) | -0.223 | 0.241 | -0.676 | 0.215 |
| HMGCS1 C12 (UniProt Q01581) | 0.579 | 0.21 | 0.0607 | -0.0577 |
| HDDC3 C133 (UniProt Q8N4P3) | -0.0353 | -0.148 | -0.33 | -0.167 |
| HECTD4 C1084 | -0.0593 | 0.118 | -0.295 | 0.0376 |
| HIP1R C650 (UniProt O75146) | -0.181 | 0.0308 | -0.258 | 0.244 |
| HAUS6 C185 (UniProt Q7Z4H7) | -0.186 | 0.178 | -0.133 | 0.128 |
| GTF2E1 C42 (UniProt P29083) | 0.156 | -0.0491 | -0.0873 | 0.187 |
| GUF1 C221 (UniProt Q8N442) | -0.298 | -0.0374 | -0.106 | 0.179 |
| HNRNPLL C505 (UniProt Q8WVV9) | 0.0638 | 0.00426 | -0.175 | -0.041 |
| HEATR6 C38 (UniProt Q6AI08) | 0.25 | 0.274 | -0.165 | 0.0781 |
| HCFC1 C227 (UniProt P51610) | 0.298 | 0.209 | 0.511 | 0.166 |
| HK1 C256 (UniProt P19367) | -0.0978 | 0.602 | -0.27 | 0.43 |
| HAUS4 C213 (UniProt Q9H6D7) | -0.452 | 0.163 | -0.626 | -0.00721 |
| HARS2 C225 (UniProt P49590) | -0.238 | 0.159 | -0.36 | -0.0487 |
| H3-7 C111 | 0.147 | -0.307 | 0.265 | 0.0734 |
